These are yes or no findings as the source states them, for the method shown. In cells and extracts the contact can be indirect. Some results given as binding are weak or reduced against the parent protein; the word gives no strength.
Biological target: calcium release-activated calcium channel protein 1 (rat (endogenous in FLSs)) (UniProt Q5M848)
Assay: co-IP; lysates of FLSs in IP lysis buffer with protease inhibitor; 1 ug antibody for STIM1 or ORAI1 and protein A/G beads, 4 °C overnight; Western blot for the other protein; cells untreated or treated with 200 uM resveratrol, 200 uM resveratrol + ORAI1 overexpression vector, or ORAI1 SiRNA (within 5 uM H2O2)

By UniProt entry, the sequences of proteins in these tests, tags left out. Residues count along the entry.
UniProt Q5M848: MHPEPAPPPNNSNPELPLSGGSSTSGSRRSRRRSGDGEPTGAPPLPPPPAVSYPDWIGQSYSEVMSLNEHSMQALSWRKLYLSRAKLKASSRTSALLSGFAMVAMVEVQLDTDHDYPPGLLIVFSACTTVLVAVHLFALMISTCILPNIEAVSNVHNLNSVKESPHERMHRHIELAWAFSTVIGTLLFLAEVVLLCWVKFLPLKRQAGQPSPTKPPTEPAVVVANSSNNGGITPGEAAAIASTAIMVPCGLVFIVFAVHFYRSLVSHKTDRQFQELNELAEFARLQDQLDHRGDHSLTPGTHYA
UniProt P84903, residues 23-685: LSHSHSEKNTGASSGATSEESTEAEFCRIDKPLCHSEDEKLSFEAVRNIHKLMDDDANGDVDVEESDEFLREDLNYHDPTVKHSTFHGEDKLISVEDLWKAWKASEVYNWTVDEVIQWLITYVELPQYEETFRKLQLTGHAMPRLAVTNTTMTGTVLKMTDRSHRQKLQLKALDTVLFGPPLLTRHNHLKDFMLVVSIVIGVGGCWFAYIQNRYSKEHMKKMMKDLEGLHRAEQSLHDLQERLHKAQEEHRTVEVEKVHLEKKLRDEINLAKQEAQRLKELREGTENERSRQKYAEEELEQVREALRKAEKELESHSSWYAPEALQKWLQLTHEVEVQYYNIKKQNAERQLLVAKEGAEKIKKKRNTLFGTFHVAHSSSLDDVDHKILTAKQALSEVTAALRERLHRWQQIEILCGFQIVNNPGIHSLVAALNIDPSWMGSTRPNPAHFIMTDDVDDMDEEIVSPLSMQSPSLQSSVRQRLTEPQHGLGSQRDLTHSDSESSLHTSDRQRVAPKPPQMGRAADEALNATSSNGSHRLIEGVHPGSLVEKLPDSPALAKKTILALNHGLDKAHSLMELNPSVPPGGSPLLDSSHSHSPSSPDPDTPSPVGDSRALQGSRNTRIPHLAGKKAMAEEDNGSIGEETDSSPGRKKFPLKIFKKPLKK

stromal interaction molecule 1 (from UniProt P84903 23-685)
binding: binds
